PubChem BioAssay AID652272, Drosophila RNAi Screening Center, 2013
The deposit covers about 21,000 reagents; shown is an unselected part of those with a known target gene and a result. In the full data, 503 (2.4%) were called active. 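Raw plate light values, not normalised; calls rest on replicate z-scores that were not deposited; hits include reporter decreases as well as increases.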 Reagents against one gene are numbered here. The record does not give: the amount of reagent, the time to read-out.

- Purpose: 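Finding fly genes that regulate Hedgehog signal transduction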 (primary screen)
- Cell system: Drosophila clone 8 (Cl8) cells
- Knock-down reagent: long dsRNA against Drosophila genes
- Measured: 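Firefly light from a Hedgehog-responsive ptc promoter reporter and Renilla reference light, both read on a plate reader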
- Scale: firefly Hh reporter signal: higher = more ptc reporter light; Renilla reference signal: higher = more Renilla control light
- Rule for the call: 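Called a hit if the two-replicate mean z-score lies below -2 or above +3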
- Calls: active = hit: reporter lowered or raised; inactive = not a hit

firefly Hh reporter signal, replicate 1 | firefly Hh reporter signal, replicate 2 | firefly Hh reporter signal, replicate 3 | Renilla reference signal, replicate 1 | Renilla reference signal, replicate 2 | outcome | target gene | reagent
54210 | 44669 | – | 2646 | 2336 | inactive | CG4891 | 1
64688 | 62304 | – | 1745 | 6245 | inactive | tbrd-3 | 1
75357 | 68842 | – | 2568 | 808 | inactive | CG31029 | 1
88788 | 43987 | – | 3846 | 2330 | inactive | l(2)34Fd | 1
1.31e5 | 5.75e5 | 3.18e5 | 4148 | 5240 | inactive | SmydA-4 | 1
54588 | 1.67e5 | – | 1821 | 7303 | inactive | NAAT1 | 1
1.18e5 | 41105 | – | 3170 | 4946 | inactive | CG15406 | 1
1.37e5 | 63904 | – | 3105 | 1510 | inactive | NetB | 1
4.30e5 | 1.65e5 | – | 24914 | 487 | inactive | CG5346 | 1
94700 | 54379 | – | 3872 | 2518 | inactive | Helz | 1
1.20e5 | 2.88e5 | – | 3082 | 11200 | inactive | CG33267 | 1
90508 | 33042 | – | 2608 | 3387 | inactive | CG8997 | 1
82048 | 72771 | – | 2262 | 2146 | inactive | CG1607 | 1
1.26e5 | 1.26e5 | – | 4721 | 4589 | inactive | Start1 | 1
4.80e5 | 2.83e5 | – | 21049 | 5816 | inactive | AstA-R1 | 1
97045 | 3.17e5 | – | 2338 | 12145 | inactive | AstA-R1 | 2
1.06e5 | 2.98e5 | – | 2280 | 11376 | inactive | Cnx14D | 1
89325 | 50754 | – | 1835 | 3282 | inactive | CG13196 | 1
85045 | 40797 | – | 1956 | 3652 | inactive | CG15861 | 1
1.04e5 | 69321 | – | 2762 | 6244 | inactive | CG17329 | 1
82848 | 56236 | – | 3437 | 2353 | inactive | Adgf-A | 1
2.40e5 | – | – | 4650 | – | inactive | CG33288 | 1
32587 | 60387 | – | 3753 | 4034 | inactive | spo | 1
1.00e5 | 1.78e5 | – | 2778 | 7556 | inactive | CG42673 | 1
30451 | 57033 | – | 1328 | 3392 | active | CG42673 | 2
28736 | 43632 | 43864 | 4544 | 3434 | inactive | CG42673 | 3
12217 | 39978 | 59137 | 3666 | 4410 | inactive | CG42673 | 4
53511 | 71149 | 89424 | 4444 | 5980 | inactive | CG42673 | 5
31380 | 67213 | 67014 | 5036 | 5003 | inactive | CG42673 | 6
5.57e5 | 1.12e5 | – | 27907 | 3639 | inactive | CG6972 | 1
78404 | 78068 | – | 4089 | 3776 | inactive | gammaTub23C | 1
72595 | 76449 | – | 2633 | 1633 | inactive | CAH16 | 1
1.29e5 | 2.89e5 | – | 3788 | 13456 | inactive | beat-IIIa | 1
99979 | 2.14e5 | – | 2969 | 10513 | inactive | beat-IIIa | 2
1.27e5 | 77366 | – | 3037 | 6097 | inactive | beat-IIIa | 3
86130 | 1.85e5 | – | 2306 | 5218 | inactive | CG4053 | 1
1.01e5 | 57014 | – | 2576 | 5176 | inactive | CG14400 | 1
80534 | 32496 | – | 3344 | 1729 | inactive | Ndf | 1
51748 | 77851 | – | 4076 | 5344 | inactive | hoka | 1
97521 | 42474 | 44179 | 4771 | 2935 | inactive | CG32086 | 1
1.53e5 | – | – | 7560 | 4292 | inactive | CG13049 | 1
1.40e5 | 1.01e5 | – | 5290 | 4557 | inactive | mTerf3 | 1
1.11e5 | 1.10e5 | – | 4333 | 4081 | inactive | hmw | 1
95094 | 1.05e5 | – | 3379 | 3330 | inactive | CG14570 | 1
1.31e5 | 74581 | – | 3900 | 4293 | inactive | Cpr64Ad | 1
90729 | 54273 | – | 3657 | 2359 | inactive | rump | 1
54540 | 45110 | – | 2658 | 1984 | inactive | HIPP1 | 1
63270 | 2.75e5 | – | 2935 | 10727 | inactive | Ugalt | 1
75017 | 46501 | – | 2855 | 2048 | inactive | Lpin | 1
57376 | 36712 | – | 1106 | 2858 | inactive | CG9084 | 1
1.31e5 | 85569 | – | 5840 | 1761 | inactive | CG8774 | 1
1.58e5 | 1.31e5 | – | 6988 | 4854 | inactive | CG1090 | 1
1.17e5 | 49381 | – | 3125 | 1644 | inactive | CG1273 | 1
70716 | 76154 | – | 3299 | 2899 | inactive | Tudor-SN | 1
75299 | 36776 | – | 2480 | 2733 | inactive | Bro | 1
1.10e5 | 37906 | – | 2700 | 4183 | inactive | Sytalpha | 1
1.03e5 | 81066 | – | 2640 | 7155 | inactive | CG13560 | 1

Just “firefly Hh reporter signal, replicate 1”, for 6 of the entries above:
CG1090 = 1.58e5
CG1273 = 1.17e5
Tudor-SN = 70716
Bro = 75299
Sytalpha = 1.10e5
CG13560 = 1.03e5
